In publication PMC10286367:
No constants are given. Whether binding was seen depends on the method and setting. In cells and extracts the contact can be indirect. Some entries that bind do so weakly or less than the wild type.

Chains of the proteins cited; added tags and fusions are not shown.
UniProt Q04207: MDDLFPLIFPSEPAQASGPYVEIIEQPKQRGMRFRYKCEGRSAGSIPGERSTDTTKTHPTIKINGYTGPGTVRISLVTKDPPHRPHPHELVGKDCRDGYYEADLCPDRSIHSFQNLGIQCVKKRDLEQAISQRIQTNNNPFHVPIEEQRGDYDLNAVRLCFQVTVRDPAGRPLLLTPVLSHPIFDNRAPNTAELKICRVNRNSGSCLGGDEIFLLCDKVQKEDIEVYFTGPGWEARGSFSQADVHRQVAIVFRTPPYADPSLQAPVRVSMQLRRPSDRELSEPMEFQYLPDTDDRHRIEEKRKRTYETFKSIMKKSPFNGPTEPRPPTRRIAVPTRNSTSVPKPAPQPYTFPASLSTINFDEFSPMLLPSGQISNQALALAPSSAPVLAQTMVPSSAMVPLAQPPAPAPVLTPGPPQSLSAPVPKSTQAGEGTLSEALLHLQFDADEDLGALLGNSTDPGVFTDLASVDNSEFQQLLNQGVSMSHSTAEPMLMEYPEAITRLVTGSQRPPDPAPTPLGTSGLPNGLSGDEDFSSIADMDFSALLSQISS

Biological target: T1, O-GlcNAc transferase (Ogt) (mouse (endogenous in primary astrocytes and hippocampal tissue)) (UniProt Q8CGY8)
T1 sequence: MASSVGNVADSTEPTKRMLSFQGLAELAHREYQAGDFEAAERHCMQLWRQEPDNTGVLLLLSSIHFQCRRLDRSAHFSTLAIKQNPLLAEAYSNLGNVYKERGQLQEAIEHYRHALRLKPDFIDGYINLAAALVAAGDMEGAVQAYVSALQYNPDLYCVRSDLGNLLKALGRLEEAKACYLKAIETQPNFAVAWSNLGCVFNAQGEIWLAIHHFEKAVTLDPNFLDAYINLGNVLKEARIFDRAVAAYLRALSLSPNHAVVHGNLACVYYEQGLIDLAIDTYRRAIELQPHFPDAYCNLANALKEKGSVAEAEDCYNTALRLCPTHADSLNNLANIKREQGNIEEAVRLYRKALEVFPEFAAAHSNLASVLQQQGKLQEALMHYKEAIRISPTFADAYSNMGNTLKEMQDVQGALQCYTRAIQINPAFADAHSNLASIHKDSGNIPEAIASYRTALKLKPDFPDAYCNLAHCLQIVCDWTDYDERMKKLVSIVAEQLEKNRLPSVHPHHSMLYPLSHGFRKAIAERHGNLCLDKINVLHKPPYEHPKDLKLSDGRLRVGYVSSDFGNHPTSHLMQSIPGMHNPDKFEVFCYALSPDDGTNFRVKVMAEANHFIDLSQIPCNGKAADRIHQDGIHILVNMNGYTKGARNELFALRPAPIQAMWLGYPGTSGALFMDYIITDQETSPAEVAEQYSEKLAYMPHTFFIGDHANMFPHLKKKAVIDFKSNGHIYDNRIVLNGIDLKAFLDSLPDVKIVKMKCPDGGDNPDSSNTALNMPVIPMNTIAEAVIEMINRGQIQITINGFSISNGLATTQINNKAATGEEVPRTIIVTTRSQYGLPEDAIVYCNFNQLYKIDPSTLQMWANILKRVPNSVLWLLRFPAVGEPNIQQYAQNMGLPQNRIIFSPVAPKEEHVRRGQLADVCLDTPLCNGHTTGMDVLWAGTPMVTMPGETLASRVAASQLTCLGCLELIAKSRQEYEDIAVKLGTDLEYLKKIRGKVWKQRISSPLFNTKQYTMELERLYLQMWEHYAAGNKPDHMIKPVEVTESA
Test: co-IP; endogenous reciprocal IP-WB in cultured primary mouse astrocytes; cells crosslinked with 1% formaldehyde for 10 min, lysed with IP Lysis Buffer (50 mM Tris-HCl, 0.5% Triton-X, 150 mM KCl, 1 mM EDTA); Protein A agarose beads, 4 °C

NF-κB p65 (from UniProt Q04207 1-549)
binding: binds
